Assay results as given in PMC7819943, “Rice protein-binding microarrays: a tool to detect cis-acting elements near promoter regions in rice”.
The other results are listed elsewhere or left out.

Target: T1, OsSMF1 (Oryza sativa, UniProt Q6ZLB0 1-436)
T1 sequence: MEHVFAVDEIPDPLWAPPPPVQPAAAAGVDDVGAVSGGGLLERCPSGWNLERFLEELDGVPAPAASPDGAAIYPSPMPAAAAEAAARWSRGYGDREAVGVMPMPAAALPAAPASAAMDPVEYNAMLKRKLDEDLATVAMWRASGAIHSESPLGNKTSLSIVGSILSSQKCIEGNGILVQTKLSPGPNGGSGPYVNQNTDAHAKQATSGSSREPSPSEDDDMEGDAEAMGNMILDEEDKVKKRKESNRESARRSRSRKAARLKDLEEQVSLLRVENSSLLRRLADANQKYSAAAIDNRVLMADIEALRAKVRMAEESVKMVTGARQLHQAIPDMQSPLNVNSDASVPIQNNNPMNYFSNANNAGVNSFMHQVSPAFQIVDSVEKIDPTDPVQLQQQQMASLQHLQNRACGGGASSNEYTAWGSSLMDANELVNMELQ
Test: protein-binding microarray (RPBM); PBS, 2% BSA, 51.3 ng/ul salmon testes DNA, 50 uM zinc acetate, 200 nM TF, 25 C, 1 h; high values mean tight binding
Settings: protein: recombinant; tags: N-terminal polyhistidine and DsRed monomer fusion (pET32a); chain copies: 2; label: CyDye5-dUTP incorporated in the synthesized complementary strand; 3' TTTTT single-stranded linker to array surface; dsDNA, one strand shown
Summary of the method: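 Ni–NTA purification followed expression in E. coli BL21-CodonPlus of transcription factors fused N-terminally to a polyhistidine tag and DsRed. At 200 nM in PBS with 2% BSA, salmon testes DNA and 50 µM zinc acetate, the protein was incubated for 1 h at 25 °C with a custom Agilent array that had been primer-extended with Cy5-dUTP and blocked with 2% BSA. After washing, the array was read on an Axon 4000B scanner. The binding signal is per-feature fluorescence intensity in arbitrary units.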

Row | Sequence | binding signal
1 | GACATACCTGAGCACCATATATGGTAGCAACCAACCCTTTCGGAGTCACCTAGTGCAG | 25100 fluorescence intensity (a.u.)
2 | TGGGATCGCGGTGACGCCGCCGCCGCCGGTGGTAGCTCCTCGGAGTCACCTAGTGCAG | 3370 fluorescence intensity (a.u.)
3 | GCCATCAACTAAGCAGTTTCAGTGAAACTTCCACCATGCTCGGAGTCACCTAGTGCAG | 21800 fluorescence intensity (a.u.)
4 | TAATACCAGTACTAGATCTCGACTAATCCCGCGTCACGAACGGAGTCACCTAGTGCAG | 4700 fluorescence intensity (a.u.)
5 | AGAACAGCCAACCCATTGATGAGTCAGCAAAGGATCAGATCGGAGTCACCTAGTGCAG | 14400 fluorescence intensity (a.u.)
6 | GCAGATCGTAATGACGTTATTCGATATTCGATCGATCGGCCGGAGTCACCTAGTGCAG | 3240 fluorescence intensity (a.u.)
7 | CAGATCCACGCCGCCACCTCCGCTGATCCGTGCCGCCGTCCGGAGTCACCTAGTGCAG | 3330 fluorescence intensity (a.u.)
8 | TGGGCAAGATGGTGAATTGGTGATGGTTCTCATGAATGGCCGGAGTCACCTAGTGCAG | 3940 fluorescence intensity (a.u.)
9 | CCTCTTCCTCCTCCTCGCATGCCCACCTCAGAATCATCTCCGGAGTCACCTAGTGCAG | 4150 fluorescence intensity (a.u.)
10 | AAAACAACAAGAGGACGCGAGGGGTCGGGGTGGGAGAGGGCGGAGTCACCTAGTGCAG | 4590 fluorescence intensity (a.u.)
11 | GGCCACAACGATCTCTCTCTCCAGTCTCGACTCCCCAGCTCGGAGTCACCTAGTGCAG | 3290 fluorescence intensity (a.u.)
12 | GGACCTACCCAAGTACGTGGACCCGCTGCCGCAGATGGCCCGGAGTCACCTAGTGCAG | 3660 fluorescence intensity (a.u.)
13 | CGGCGGCGGGCGCGGCGGGAGGAGGGCGATGACAGGTGGGCGGAGTCACCTAGTGCAG | 5010 fluorescence intensity (a.u.)
14 | TCTCCTCATCAATCCAATCTCATTAACTCATCACAAGCATCGGAGTCACCTAGTGCAG | 36800 fluorescence intensity (a.u.)
15 | CGATCGATTGATCTGTACGTGCGCTTTCAGGTTAATTTGTCGGAGTCACCTAGTGCAG | 3580 fluorescence intensity (a.u.)
16 | GGCACGTGCATGTACGCAAACGAGTTTCCAGATAAGTAAACGGAGTCACCTAGTGCAG | 24900 fluorescence intensity (a.u.)
17 | TGTGACCCAACTTTCCCCATCTGAGTCATCTGACCATCTCCGGAGTCACCTAGTGCAG | 13900 fluorescence intensity (a.u.)
18 | GTGATGCAAACACAGCCTTAGTCACCTGTTTAGACCGGCCCGGAGTCACCTAGTGCAG | 3790 fluorescence intensity (a.u.)
19 | TCTGATTGAACGAGTTTACAGATTGAGAAAGCACGCGTCACGGAGTCACCTAGTGCAG | 3390 fluorescence intensity (a.u.)
20 | CTTGGCATGATTCGGCAAACACTCAAACTGTTCTCACTTTCGGAGTCACCTAGTGCAG | 3250 fluorescence intensity (a.u.)
21 | TAAAGTTCACCTTCTTTTCCTGCTGTCATGACGTGAGCCTCGGAGTCACCTAGTGCAG | 4170 fluorescence intensity (a.u.)

Quoted from the listing:
GTGATGCAAACACAGCCTTAGTCACCTGTTTAGACCGGCCCGGAGTCACCTAGTGCAG | binding signal: 3790 fluorescence intensity (a.u.)
CGATCGATTGATCTGTACGTGCGCTTTCAGGTTAATTTGTCGGAGTCACCTAGTGCAG | binding signal: 3580 fluorescence intensity (a.u.)
GGACCTACCCAAGTACGTGGACCCGCTGCCGCAGATGGCCCGGAGTCACCTAGTGCAG | binding signal: 3660 fluorescence intensity (a.u.)
GGCACGTGCATGTACGCAAACGAGTTTCCAGATAAGTAAACGGAGTCACCTAGTGCAG | binding signal: 24900 fluorescence intensity (a.u.)

More records follow:

Row | Sequence | binding signal
22 | AAGGGCAGCATATACAGTCATACAGACTAGTATTAATTAGCGGAGTCACCTAGTGCAG | 4370 fluorescence intensity (a.u.)
23 | CTACGAGCACACGCCCTCGTACTCACCCGGACGGCGATGGCGGAGTCACCTAGTGCAG | 3780 fluorescence intensity (a.u.)
24 | GTTGACAAGAAATGACACGTGAGCATGATAGCTCAACGACCGGAGTCACCTAGTGCAG | 7820 fluorescence intensity (a.u.)
25 | AATTCCCATGCTGATTGCACGTCATAGGTGCATCTAGCGACGGAGTCACCTAGTGCAG | 3530 fluorescence intensity (a.u.)
26 | GCAGCGAGTGCTCTGTCTTTGCCCATCGCCTGACGCCGCACGGAGTCACCTAGTGCAG | 4550 fluorescence intensity (a.u.)
27 | CCTCAACGCACAGCTCGGTCAGCACAAACACCTCCCCTGCCGGAGTCACCTAGTGCAG | 3320 fluorescence intensity (a.u.)
28 | TTTGCTGACTGTAGTGACGTGTTTTGTTAAATCCATTATCCGGAGTCACCTAGTGCAG | 10300 fluorescence intensity (a.u.)
29 | AGCCGGCGGCGCGCACGTAGCACCACGGACTCCGCCAGCGCGGAGTCACCTAGTGCAG | 3430 fluorescence intensity (a.u.)
30 | CGGCATCGTCGTCCCGCGCGCCACGTGCTTCCCGCTCTAGCGGAGTCACCTAGTGCAG | 5750 fluorescence intensity (a.u.)
31 | ACCCCGCCACGCCACGCCGCGCCGGGCTGGGCTGCTGCTCCGGAGTCACCTAGTGCAG | 4860 fluorescence intensity (a.u.)
32 | CACGCTGTCCGGTCTCTCTTTCTATCTTGTGTTGACTCTGCGGAGTCACCTAGTGCAG | 3680 fluorescence intensity (a.u.)
33 | GAGAGGACGAAGGGAAAGAGAGAGATGGTGATGACGTGGCCGGAGTCACCTAGTGCAG | 31600 fluorescence intensity (a.u.)
34 | GTGGTCGTCGCTGATAGCGAGGTGGGTAGGGTTAATTTTGCGGAGTCACCTAGTGCAG | 3890 fluorescence intensity (a.u.)
35 | GATCGAGTCATACACATTTGACCAACCAAAGCCTTAGACTCGGAGTCACCTAGTGCAG | 3270 fluorescence intensity (a.u.)
36 | CTGCCGTCGTTTTGTTTACGCCTTTAAACAATGTGAAGACCGGAGTCACCTAGTGCAG | 25900 fluorescence intensity (a.u.)
37 | CAACCACCCCGCGATAGCTGGAGTCACCGGCGTTCACACACGGAGTCACCTAGTGCAG | 3240 fluorescence intensity (a.u.)
38 | GGAAGCTGGAGATTGGTCTTTCATGTCCTCATTGGCAAATCGGAGTCACCTAGTGCAG | 3530 fluorescence intensity (a.u.)
39 | ATACGCCTTTTAAAATATCGTCATTGAGCTTAACCTTTCTCGGAGTCACCTAGTGCAG | 3620 fluorescence intensity (a.u.)
40 | AAGGAAGGAAACTAGGAAAGGAGGAGTCATCACTGGTAGGCGGAGTCACCTAGTGCAG | 6410 fluorescence intensity (a.u.)
41 | GAAAGAGGACTCCGAGAGCTTTCCATCAAGTACTCACGGGCGGAGTCACCTAGTGCAG | 16100 fluorescence intensity (a.u.)
42 | CGTCCCCGCCGACGGCGTGTTCCTGGACGGCCACGCGCTGCGGAGTCACCTAGTGCAG | 3630 fluorescence intensity (a.u.)
